Results taken from patent publication US7932083B2, “DNA participating in hydroxylation of macrolide compound” (priority 2003, dated 2011).

Tested on: E. coli BL21(DE3)/pT7NS-CamAB strain used as a control
Test: Conversion reaction with control strain BL21(DE3)/pT7NS-CamAB, HPLC amounts
Format: cell-based
Conditions: 28° C., 24 hours
[1] = substrate 11107B (12.5 μL of 40 mg/mL), Example 9
[2] = substrate 11107B (12.5 μL of 40 mg/mL), Example 12
[3] = substrate 11107B (50 μL of 40 mg/mL), Example 4
[4] = substrate ME-265 (50 μL of 8 mg/mL)

SMILES | amount in conversion reaction solution (HPLC), BL21(DE3)/pT7NS-CamAB [1] | amount in conversion reaction solution (HPLC), BL21(DE3)/pT7NS-CamAB [2] | amount in conversion reaction solution (HPLC), BL21(DE3)/pT7NS-CamAB [3] | amount in conversion reaction solution (HPLC), BL21(DE3)/pT7NS-CamAB [4]
CCC(O)C(C)C1OC1CC(C)/C=C/C=C(\C)C1OC(=O)CC(O)CCC(C)(O)C(OC(C)=O)/C=C/C1C (centres unmarked) [11107B] | 162 mg/L | 141 mg/L | 636 mg/L | –
CCC(O)C(C)C1OC1CC(C)(O)/C=C/C=C(\C)C1OC(=O)CC(O)CCC(C)(O)C(OC(C)=O)/C=C/C1C (centres unmarked) [11107D] | 0.00 mg/L | 0 mg/L | 0 mg/L | –
CCC(O)C(C)C1OC1CC(C)/C=C/C=C(\C)C1OC(=O)CC(O)CCC(C)C(OC(C)=O)/C=C/C1C (centres unmarked) [ME-265] | – | – | – | 143 mg/L
CCC(O)C(C)C1OC1CC(C)(O)/C=C/C=C(\C)C1OC(=O)CC(O)CCC(C)C(OC(C)=O)/C=C/C1C (centres unmarked) [ME-282] | – | – | – | 0 mg/L
